Source: the supplement of paper PMC12889115
The other results are listed elsewhere or left out. These are raw signals, not scaled to a control.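 First-pass screen: polymyxin B was added at a level that permeabilizes the Salmonella outer membrane while sparing the inner membrane. DMSO wells, with and without polymyxin B, defined maximum growth. Because plates differed from one another, each plate's data were ranked separately and the compounds with the lowest OD600 were carried forward as hits.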

Tested on: Salmonella enterica serovar Typhimurium SL1344
Assay: bacterial growth OD600 after 18 h with compound and polymyxin B; higher = more bacterial growth (less inhibition)
Settings: 50 µM, Mueller-Hinton broth

SMILES | bacterial growth OD600 (polymyxin B 0.75 µg/mL) | bacterial growth OD600 (polymyxin B 1 µg/mL)
O=C(NCCN1Cc2ccccc2OC(c2ccccc2)C1)C1=CCCCC1 (stereo unspecified) | 0.008 | –
Cc1occc1C(=O)NC1CC(C)(C)Cc2nc(N3CCOCC3)ncc21 (stereo unspecified) | 0.815 | –
CN(CCC1CCOCC1)C(=O)c1csc2nc(-c3ccc(F)cc3)cn12 | 0.861 | –
Cc1c(C(=O)N(C)CCCCN2CCOCC2)oc2c(F)cccc12 | – | 1.15
CCOC(=O)CNC(=O)N1CCCC(Nc2cccc(F)c2)C1 (stereo unspecified) | – | 0.902
Cc1ccccc1N1CCN(c2ncccc2CNC(=O)C2CC=CCC2)CC1 (stereo unspecified) | – | 0.362
CSc1ncc(CN2CCC(CCC(=O)NCc3cccnc3)CC2)cn1 | – | 0.949
COc1ccc(Cc2nc3ccc(C(=O)NCC4CCCO4)cc3o2)cc1 (stereo unspecified) | 0.665 | –
OCCC1CN(Cc2c(F)ccc(F)c2F)CCN1Cc1ccccc1F (stereo unspecified) | – | 1.16
COc1ccc(CC2(CCC(=O)N3CCCC(COc4ccc(C)cc4)C3)CCC(=O)N2)cc1OC (stereo unspecified) | 0.764 | –
CC(C)N1CCN(CC2(O)CCCN(Cc3ccc(F)cc3)C2=O)CC1 (stereo unspecified) | – | 1.01
CCCC(=O)NC1CC(C)(C)Cc2c1cnn2-c1ccccc1 (stereo unspecified) | 0.688 | –
COc1cccc(CCC(=O)N(CCc2ccccc2)CC2CCCN(C)C2)c1 (stereo unspecified) | – | 0.767
CC(=O)NCCNC(=O)CC(c1ccccc1)c1ccc(Cl)cc1 (stereo unspecified) | – | 0.896
CN(C(=O)c1ccc2cc[nH]c2c1)C1CCCN(Cc2ccccc2F)C1 (stereo unspecified) | – | 0.873
O=C(c1cc(CCc2ccccc2)no1)N1CCCC(c2ccccc2)C1 (stereo unspecified) | -0.004 | –
Cc1c(C(C)NC(=O)CCCN2CCCC2=O)cnn1-c1cccc2ccccc12 (stereo unspecified) | – | 0.848
COCC(=O)Nc1cc(C(=O)N2CCN(C(=O)c3ccco3)CC2)c2c(c1)nc(C1CCC1)n2C | 0.862 | –
COc1ccccc1Oc1ncccc1CNC(=O)c1ccncc1 | – | 0.834
COc1ccc(F)c(CN2CCCC3(CCN(c4nc(C)cc(C)n4)C3)C2=O)c1 (stereo unspecified) | – | 0.57
O=C(CN1Cc2ccccc2OC(c2ccsc2)C1)N1CCC(N2CCOCC2)CC1 (stereo unspecified) | 0.836 | –
